This is an account of results in paper PMC5640855, “ZIC2 Is Essential for Maintenance of Latency and Is a Target of an Immediate Early Protein during Kaposi's Sarcoma-Associated Herpesvirus Lytic Reactivation” (Journal of Virology, 2017).

Amino acid sequences for entries named in this document (tags omitted).
UniProt O95409: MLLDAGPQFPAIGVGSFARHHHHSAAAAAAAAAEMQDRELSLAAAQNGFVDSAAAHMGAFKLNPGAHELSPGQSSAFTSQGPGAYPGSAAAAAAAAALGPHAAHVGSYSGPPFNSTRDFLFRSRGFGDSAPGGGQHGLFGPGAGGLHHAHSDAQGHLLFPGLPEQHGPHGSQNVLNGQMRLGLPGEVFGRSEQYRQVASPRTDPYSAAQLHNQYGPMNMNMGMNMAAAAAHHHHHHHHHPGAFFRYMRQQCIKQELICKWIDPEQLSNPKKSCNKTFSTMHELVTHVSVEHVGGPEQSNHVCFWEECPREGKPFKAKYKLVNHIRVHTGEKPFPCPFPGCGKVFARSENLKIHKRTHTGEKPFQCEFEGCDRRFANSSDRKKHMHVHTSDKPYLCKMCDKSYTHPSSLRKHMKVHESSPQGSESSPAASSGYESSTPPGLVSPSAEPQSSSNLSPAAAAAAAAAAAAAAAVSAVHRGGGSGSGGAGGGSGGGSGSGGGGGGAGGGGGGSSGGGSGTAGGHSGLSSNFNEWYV
UniProt Q15910: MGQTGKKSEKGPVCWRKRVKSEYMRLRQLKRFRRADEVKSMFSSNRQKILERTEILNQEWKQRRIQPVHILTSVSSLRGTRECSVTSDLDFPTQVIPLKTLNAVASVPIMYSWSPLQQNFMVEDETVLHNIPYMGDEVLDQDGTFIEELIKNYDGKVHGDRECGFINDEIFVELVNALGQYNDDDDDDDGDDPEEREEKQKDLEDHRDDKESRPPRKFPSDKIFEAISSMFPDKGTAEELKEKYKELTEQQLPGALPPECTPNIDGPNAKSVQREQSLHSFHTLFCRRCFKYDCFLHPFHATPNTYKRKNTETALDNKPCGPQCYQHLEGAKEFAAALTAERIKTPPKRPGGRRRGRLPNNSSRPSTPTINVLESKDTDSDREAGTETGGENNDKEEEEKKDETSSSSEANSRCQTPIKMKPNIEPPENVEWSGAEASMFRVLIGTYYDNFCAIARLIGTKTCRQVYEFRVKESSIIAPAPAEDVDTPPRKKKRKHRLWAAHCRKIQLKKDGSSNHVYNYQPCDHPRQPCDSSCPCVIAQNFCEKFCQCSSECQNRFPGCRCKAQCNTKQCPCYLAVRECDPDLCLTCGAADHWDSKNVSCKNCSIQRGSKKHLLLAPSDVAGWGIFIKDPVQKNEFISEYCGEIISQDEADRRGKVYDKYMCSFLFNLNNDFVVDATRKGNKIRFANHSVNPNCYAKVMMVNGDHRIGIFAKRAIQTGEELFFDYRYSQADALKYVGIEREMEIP
UniProt Q15022: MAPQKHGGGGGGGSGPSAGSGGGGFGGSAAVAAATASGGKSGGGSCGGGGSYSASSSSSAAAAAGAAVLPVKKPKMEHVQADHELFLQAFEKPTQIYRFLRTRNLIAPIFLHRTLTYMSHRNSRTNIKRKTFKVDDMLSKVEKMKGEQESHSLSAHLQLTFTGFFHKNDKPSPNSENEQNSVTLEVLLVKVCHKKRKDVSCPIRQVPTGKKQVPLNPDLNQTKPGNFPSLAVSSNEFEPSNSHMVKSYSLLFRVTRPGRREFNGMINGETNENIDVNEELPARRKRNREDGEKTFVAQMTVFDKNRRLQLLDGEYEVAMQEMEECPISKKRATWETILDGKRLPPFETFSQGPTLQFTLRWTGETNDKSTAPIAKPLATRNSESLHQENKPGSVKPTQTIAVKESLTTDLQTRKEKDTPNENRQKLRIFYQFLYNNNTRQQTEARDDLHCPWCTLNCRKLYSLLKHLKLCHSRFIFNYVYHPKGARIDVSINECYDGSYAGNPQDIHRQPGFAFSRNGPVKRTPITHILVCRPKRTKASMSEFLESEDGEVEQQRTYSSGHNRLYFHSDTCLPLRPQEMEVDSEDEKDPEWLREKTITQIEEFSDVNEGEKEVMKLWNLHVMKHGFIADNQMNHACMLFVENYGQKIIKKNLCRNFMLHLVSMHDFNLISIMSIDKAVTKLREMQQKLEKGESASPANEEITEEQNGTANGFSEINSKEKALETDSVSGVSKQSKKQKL
UniProt F5HCV3: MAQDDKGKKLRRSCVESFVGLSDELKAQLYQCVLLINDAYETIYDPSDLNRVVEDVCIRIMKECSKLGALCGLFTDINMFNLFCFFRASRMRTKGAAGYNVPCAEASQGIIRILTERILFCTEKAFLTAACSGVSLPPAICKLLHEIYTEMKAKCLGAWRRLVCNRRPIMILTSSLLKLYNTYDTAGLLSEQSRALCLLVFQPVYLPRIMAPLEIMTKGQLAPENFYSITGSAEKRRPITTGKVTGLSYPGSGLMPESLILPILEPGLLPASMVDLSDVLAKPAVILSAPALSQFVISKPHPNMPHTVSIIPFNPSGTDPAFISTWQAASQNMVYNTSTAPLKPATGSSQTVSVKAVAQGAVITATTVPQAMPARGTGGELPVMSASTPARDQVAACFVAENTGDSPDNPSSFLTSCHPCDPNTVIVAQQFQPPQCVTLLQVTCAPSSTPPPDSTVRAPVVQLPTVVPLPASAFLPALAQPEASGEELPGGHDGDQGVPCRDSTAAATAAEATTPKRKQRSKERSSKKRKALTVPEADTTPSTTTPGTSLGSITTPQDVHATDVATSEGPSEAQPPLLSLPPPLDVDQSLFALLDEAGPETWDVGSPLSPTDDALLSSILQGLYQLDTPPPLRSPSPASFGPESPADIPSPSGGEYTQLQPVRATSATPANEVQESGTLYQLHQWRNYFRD

The target in one test is FLAG-tagged ZIC2 (UniProt O95409). The test is described as follows: co-IP; purified FLAG-ZIC2 incubated with purified FLAG-PRC2 complex in binding buffer (20 mM HEPES pH 7.9, 150 mM NaCl, 1 mM EDTA, 4 mM MgCl2, 0.02% NP-40, 10% glycerol, 1 mg/ml BSA) for 90 min at 4°C; precipitated with anti-ZIC2 antibody or control IgG; blots for EZH2, SUZ12 and EED; both purified.
Test [1] has as its target HA-tagged ZIC2 (zinc finger protein of the cerebellum 2) (UniProt O95409). The test is described as follows: co-IP.
Test [2] deals with ZIC2, endogenous in BCBL-1 cells (human (endogenous in BCBL-1)) (UniProt O95409). As to the kind of experiment: co-IP; endogenous proteins in BCBL-1 lysate; ZIC2 IP followed by EZH2 and SUZ12 blots, and EZH2 and SUZ12 IP followed by ZIC2 blot; control IgG; IP lysis buffer, 4°C.
In test [3] the target is enhancer of zeste homolog 2 (EZH2), endogenous in BCBL-1 cells (human (endogenous in BCBL-1)) (UniProt Q15910). Described as above.
In test [4] the target is suppressor of zeste 12 homolog (SUZ12), endogenous in BCBL-1 cells (human (endogenous in BCBL-1)) (UniProt Q15022). The description is as above.

These are yes or no findings as the source states them, for the method shown. For some assays here: Binding seen in cells or lysates may run through a third protein. Some entries that bind do so weakly or less than the wild type.

For “PRC2 complex (FLAG-EZH2, FLAG-SUZ12, and FLAG-EED) (from UniProt Q15910 1-746; Q15022 1-739; O75530 1-441)”, the binding entry with FLAG-tagged ZIC2 is reported as “binds”.
With “FLAG-K-Rta (KSHV replication and transcription activator) (from UniProt F5HCV3 1-691)”, in test [1], the binding entry is recorded as “binds”.
For the substance “suppressor of zeste 12 homolog (SUZ12), endogenous in BCBL-1 cells (from UniProt Q15022 1-739)”, in test [2], the binding entry is “binds”.
For the substance “ZIC2, endogenous in BCBL-1 cells (from UniProt O95409 1-532)”, the binding result in test [3] and in test [4] was “binds” in each case.
